Laboratory results taken from paper PMC4673280.
These are yes or no findings as the source states them, for the method shown. In cells and extracts the contact can be indirect. Some results given as binding are weak or reduced against the parent protein; the word gives no strength.

Protein sequences, listed by entry. Tags and fused reporters are not part of them.
UniProt P23804: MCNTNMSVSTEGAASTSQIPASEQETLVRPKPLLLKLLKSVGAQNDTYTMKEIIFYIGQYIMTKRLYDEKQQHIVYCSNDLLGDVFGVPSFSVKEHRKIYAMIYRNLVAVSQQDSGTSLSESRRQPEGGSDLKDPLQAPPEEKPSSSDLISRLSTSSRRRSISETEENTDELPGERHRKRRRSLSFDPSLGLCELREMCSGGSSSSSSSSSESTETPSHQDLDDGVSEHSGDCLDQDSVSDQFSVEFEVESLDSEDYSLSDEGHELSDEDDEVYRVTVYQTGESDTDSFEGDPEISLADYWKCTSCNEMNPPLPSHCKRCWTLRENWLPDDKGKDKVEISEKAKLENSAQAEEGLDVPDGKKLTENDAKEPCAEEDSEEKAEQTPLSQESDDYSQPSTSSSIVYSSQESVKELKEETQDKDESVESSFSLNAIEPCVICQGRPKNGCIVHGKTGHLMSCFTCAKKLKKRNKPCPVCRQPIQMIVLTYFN
UniProt Q8C863: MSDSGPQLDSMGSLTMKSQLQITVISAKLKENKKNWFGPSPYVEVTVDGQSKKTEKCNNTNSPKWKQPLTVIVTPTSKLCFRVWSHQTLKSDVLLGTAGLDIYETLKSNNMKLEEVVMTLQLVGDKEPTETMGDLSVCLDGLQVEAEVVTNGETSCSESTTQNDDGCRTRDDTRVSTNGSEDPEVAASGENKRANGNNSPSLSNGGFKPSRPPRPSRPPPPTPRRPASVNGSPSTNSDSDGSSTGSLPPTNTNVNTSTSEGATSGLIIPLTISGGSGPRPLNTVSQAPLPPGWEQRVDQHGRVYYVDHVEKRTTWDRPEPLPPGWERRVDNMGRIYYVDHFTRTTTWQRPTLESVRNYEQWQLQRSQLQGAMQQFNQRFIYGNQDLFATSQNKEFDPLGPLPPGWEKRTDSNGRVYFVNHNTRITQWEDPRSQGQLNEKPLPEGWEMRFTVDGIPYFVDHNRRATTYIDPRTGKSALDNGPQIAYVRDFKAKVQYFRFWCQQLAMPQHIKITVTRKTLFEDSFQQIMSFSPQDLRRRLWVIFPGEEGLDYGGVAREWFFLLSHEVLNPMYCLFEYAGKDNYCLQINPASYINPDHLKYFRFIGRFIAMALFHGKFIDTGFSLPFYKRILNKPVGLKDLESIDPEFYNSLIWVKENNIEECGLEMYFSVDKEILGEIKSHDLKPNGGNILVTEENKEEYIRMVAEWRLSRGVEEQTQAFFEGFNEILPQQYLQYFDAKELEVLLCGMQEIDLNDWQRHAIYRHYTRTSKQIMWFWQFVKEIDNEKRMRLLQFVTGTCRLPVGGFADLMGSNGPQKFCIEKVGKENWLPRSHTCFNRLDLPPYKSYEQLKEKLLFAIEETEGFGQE
UniProt Q00987: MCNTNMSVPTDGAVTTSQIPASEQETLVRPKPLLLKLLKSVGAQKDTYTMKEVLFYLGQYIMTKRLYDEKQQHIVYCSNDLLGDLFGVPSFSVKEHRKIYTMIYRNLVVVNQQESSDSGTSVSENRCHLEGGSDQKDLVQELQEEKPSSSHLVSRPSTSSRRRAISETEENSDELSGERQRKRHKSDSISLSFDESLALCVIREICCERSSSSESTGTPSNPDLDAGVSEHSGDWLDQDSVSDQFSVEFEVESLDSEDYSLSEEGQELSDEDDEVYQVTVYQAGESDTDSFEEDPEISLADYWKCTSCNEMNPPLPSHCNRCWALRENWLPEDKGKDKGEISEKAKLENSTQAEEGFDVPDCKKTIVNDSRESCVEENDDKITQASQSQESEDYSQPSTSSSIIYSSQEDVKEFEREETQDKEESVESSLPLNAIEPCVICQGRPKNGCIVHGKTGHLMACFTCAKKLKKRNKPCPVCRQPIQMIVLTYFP

What was measured:
[1] = molecular target: Mdm2 (mouse, transfected into MEFs) (mouse) (UniProt P23804); assay: co-IP; wild type MEFs transfected with an Mdm2 plasmid, MG132 (20 uM) for 6 hours before harvest; IP with anti-Mdm2 or anti-Itch, Western blot
[2] = molecular target: Mdm2 (mouse, transfected into MEFs) (mouse) (UniProt P23804); assay: co-IP; Mdm2-null MEFs transfected with an Mdm2 plasmid, MG132 (20 uM) for 6 hours before harvest; IP with anti-Mdm2 or anti-Itch, Western blot
[3] = molecular target: T1, p73 (endogenous, HEK293 cells) (human (endogenous in HEK293)) (UniProt O15350); assay: co-IP; endogenous proteins, extracts of HEK293 cells; IP with anti-MDM2 (SMP14) or anti-p73 (ER-15), control mouse IgG; lysis buffer 50 mM Tris-HCl pH 8.0, 5 mM EDTA, 150 mM NaCl, 0.5% NP-40; Western blot
T1 sequence: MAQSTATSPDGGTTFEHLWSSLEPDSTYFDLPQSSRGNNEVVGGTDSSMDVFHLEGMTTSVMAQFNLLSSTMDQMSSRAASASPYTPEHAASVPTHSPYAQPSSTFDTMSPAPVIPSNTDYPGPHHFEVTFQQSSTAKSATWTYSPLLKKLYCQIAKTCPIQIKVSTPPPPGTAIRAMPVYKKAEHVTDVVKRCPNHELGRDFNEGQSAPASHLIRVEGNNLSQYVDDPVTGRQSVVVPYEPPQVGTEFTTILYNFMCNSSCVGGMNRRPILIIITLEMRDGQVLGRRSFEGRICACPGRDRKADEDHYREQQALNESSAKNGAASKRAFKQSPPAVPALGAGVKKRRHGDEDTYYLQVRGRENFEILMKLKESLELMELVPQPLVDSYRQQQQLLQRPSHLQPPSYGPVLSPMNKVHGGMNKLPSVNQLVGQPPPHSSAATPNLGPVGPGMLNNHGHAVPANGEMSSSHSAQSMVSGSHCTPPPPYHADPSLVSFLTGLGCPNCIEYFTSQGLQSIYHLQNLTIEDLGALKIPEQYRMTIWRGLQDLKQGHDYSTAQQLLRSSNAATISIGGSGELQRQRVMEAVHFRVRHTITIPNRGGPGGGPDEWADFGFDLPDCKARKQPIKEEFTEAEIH

| binding [1] | binding [2] | binding [3] | Substance |
| --- | --- | --- | --- |
| binds weakly | binds | – | Itch (endogenous, MEFs) (from UniProt Q8C863 1-864) |
| – | – | binds | MDM2 (endogenous, HEK293 cells) (from UniProt Q00987 1-491) |
